The record followed here is PubChem BioAssay AID493014 (National Center for Advancing Translational Sciences (NCATS), 2011).

The nature of this assay: qHTS Assay to Find Inhibitors of Chronic Active B-Cell Receptor Signaling. The conditions noted are these: ABC-DLBCL IkBa-CBG/CBR reporter, luminescence ratio (green luciferase fused to IkBa over red control in TMD8 lymphoma cells), 4 h. An excerpt: NIH Molecular Libraries Probe Production Network [MLPCN] NIH Chemical Genomics Center [NCGC] MLPCN Grant: 1 R03 DA031086-01A1 PI Name: Dr. R. Eric Davis NCGC Assay Overview: Diffuse large B-cell lymphoma (DLBCL) is the most common category of non-Hodgkin lymphoma, with ~20,000 new cases per year in the United States. DLBCL should be regarded as a collection of different neoplasms. Microarray gene expression analysis has defined two principal types of DLBCL, named for their similarity to normal B cell stages or activation states: a germinal center B-cell (GCB) type, and an activated B-cell (ABC) type. In ABC-DLBCL, a constitutive high-level activity of the NF-kappaB family of transcription factors has been observed (1) and NF-kappaB target genes are more highly expressed in ABC primary tumors than in GCB tumors. Functional studies have shown a constitutive high-level activity of the IkappaB (inhibitor of kappa-B) kinase (IKK) complex. […] Further analysis of DLBCL primary tumors for NF-kappaB target gene expression imply that although CARD11 is required for constitutive IKK activity in all ABC-DLBCL lines, mutations in CARD11 may be the root cause of IKK activation only in lines or tumors with such mutations. In other words, CARD11 mutations may explain NF-kappaB activation in only 10% of ABC-DLBCL cases. […] This process has been termed 'chronic active BCR signaling' (CABS). The goal of this screen is to find small-molecule inhibitors of the CABS pathway found in ABC-DLBCL lines using a cell-based assay that measures IkappaBalpa stability, which has already been extensively validated in the OCI-Ly3 line (PubChem AID:445; REF: 4). […] The assay uses green (CBG68) and red (CBR) emitting beetle luciferases [Chroma-GloTM developed by Promega Corp.] where the green luciferase is fused to IkappaBalpha and the red luciferase is present in its native state. Both luciferase genes are stably present in the TMD8 human ABC DLBCL cell line, but their expression is under the control of tetracycline-inducible promoters. Following the addition of doxycycline to induce expression of the luciferases, the green luminescence in control cultures rises only slowly because the CBG fusion partner IkappaBalpha is targeted by IKK activity for rapid degradation. In contrast, green luminescence rises rapidly in the presence of proteasome inhibitors or IKK inhibitors. The rise in red luminescence of CBR is not affected by proteasome or IKK inhibitors, and serves as normalization for cell number and nonspecific effects. Compounds were screened as a concentration-titration series that ranged from 46 uM to 3 nM.
NCGC Assay Protocol Summary: Cells were seeded in 1536-well plates at 5000 cells/4uL in IMDM medium containing 0.5% FBS, w/o phenol red, 1% penicillin/streptomycin. Then, 23 nL of compounds or DMSO were delivered to each well using a pin tool. One uL 20ng/ml doxycycline was then dispensed into white solid 1536-well plates and the plates were incubated at 37C/5% C02 in a cell incubator for 4 hrs. Then 4 uL luminescent substrate mix (in-house prepared: 150 mM Tris-Cl, pH 7.6, 3 mM MgCl2, 1% Triton X-100, 5 mM DTT, 0.2 mM CoA, 0.15 mM ATP, 5 mM D-luciferin, final concentrations) was added to each well. The plate was incubated at r.t. for 10-15 min. The plates were measured on a ViewLux plate reader for green luminescence (540/20 nm filter) and red luminescence (618/8 nm filter). The green and red luminescent signals were corrected for red and green luminescence filter overlap using previously determined filter calibration constants (determined using the procedure outlined in the Promega Technical Manual; REF 4). The %Activity was determined from the ratio of corrected green/red luminescent values. MG132 were used as control. […] Red luminescent %Activity was normalized to the difference between red luminesence in basal cells (0%Activity) and zero luminescence (-100% Activity). […]

Setting [1] is: measured here: CBR red luminescence, cell number.
Where [2] appears, read: measured here: IkBa-CBG green luminescence.

Each structure is given as a SMILES string. Some of the results follow. Further columns of the screen follow, without active or inactive calls. The list favours compounds with an active or inconclusive main result. Words in brackets tell the shape of the fitted curve; partial curves, single points and poor fits give uncertain potencies.

Broadly, the AC50 is the midpoint of the concentration-response curve, whichever way the signal moves. For the compound `COc1ccc(-c2cn(CCC(=O)O)c(C)n2)cc1`, the AC50 under setting [1] was 14.6 µM [falling, partial curve, poor fit].
On the same count and under the same terms, then `Cn1cc(Cl)c(-c2nc3ccccc3[nH]2)n1`, with 25.9 µM [falling, partial curve]; and `CCOC(=O)C(C)Sc1ccc2nnc(-c3ccc(F)cc3)n2n1` (configuration not stated), with 2.24 µM [falling, full curve, poor fit]; and `CCn1cc(/C=C/C(=O)Nc2ccn(Cc3c(F)c(F)cc(F)c3F)n2)cn1`, with 13 µM [falling, partial curve, poor fit].
On the same count and under the same terms, for `CCOC(=O)Cc1csc(NC(=O)COc2ccc(OC)cc2)n1` the value was 32.6 µM [falling, single point]; for `O=C(N/N=C/c1ccc(OC(=O)c2ccccc2)c([N+](=O)[O-])c1)c1ccc(O)cc1`, 1.16 µM [falling, full curve].
Turning to `COc1cc(/C=C2\SC(N3CCCCC3)=NC2=O)cc(OC)c1OC`, the AC50 under setting [1] is 35.5 µM [falling, single point].
Same read-out and setting: then `Clc1ccc(N/N=C/c2cccnc2)cc1`, with 0.259 µM [rising, full curve, poor fit]; and `COc1ccccc1/C=N/NS(=O)(=O)c1ccccc1`, with 25.1 µM [falling, single point]; and `CCC(C(=O)OC(C)C)c1ccc2ccccc2c1` (configuration not stated), with 14.6 µM [rising, partial curve, poor fit].
As for `CC(=O)Nc1ccc(S(=O)(=O)N2CCC(NC(C)=O)(c3cccc(F)c3)CC2)cc1`, under setting [1], the AC50 was 17.8 µM [rising, partial curve, poor fit].
The same measure, in the same setting: for `O=C(COC(=O)C1=Cc2ccccc2OC1)NCc1ccco1` the value was 11.2 µM [rising, partial curve, poor fit]; for `CCS(=O)(=O)Nc1cccc(C2=NN(S(=O)(=O)c3ccccc3)C(c3ccco3)C2)c1` (configuration not stated), 35.5 µM [falling, partial curve, poor fit]; for `O=c1oc2cc(Cl)ccc2n1CSc1nc2ccccc2s1`, 2.06 µM [rising, full curve, poor fit].
For `O=C(Sc1cccc2cccnc12)c1ccc(F)cc1`, under setting [1], the AC50 was 5.01 µM [falling, single point].
`COC(=O)c1c(C)oc2ccc(N(C(=O)c3ccncc3)S(=O)(=O)c3ccc(C)cc3C)cc12`: under setting [1], the concentration at half-maximal activity (AC50) was 18.4 µM [falling, partial curve, poor fit].
For `O=C(O)c1cccc(COc2ccccc2Cl)c1`, the concentration at half-maximal activity (AC50) under setting [2] was 2.91 µM [rising, full curve, poor fit].
With `N#C/C(=C\c1ccncc1)c1nc2ccccc2o1`, the AC50 under setting [1] is 11.2 µM [falling, partial curve, poor fit].
Regarding `O=C(Nc1ccc(Cl)cc1)Nc1nnc(CSCc2ccc(Cl)cc2)s1`, the AC50 under setting [1] was 25.9 µM [rising, single point].
On the same count and under the same terms, for `COc1ccc(NC(C)=O)cc1NC(C)C(=O)Nc1cccc(S(=O)(=O)N2CCOCC2)c1` (configuration not stated) the value was 14.6 µM [rising, partial curve, poor fit].
In the case of `CC(=O)N1CCOc2cc(S(=O)(=O)Nc3cccc(C(F)(F)F)c3)c(Cl)cc21`, under setting [1], the AC50 was 23.1 µM [falling, single point].
Consider `O=C(/C=C/c1c(Cl)cccc1Cl)NCc1ccco1`, for which, under setting [1], the half-maximal activity concentration (AC50) is 20.6 µM [rising, partial curve, poor fit].
As to `N#Cc1ccc(COC(=O)c2ccc(N3CCCC3)c([N+](=O)[O-])c2)cc1`, the AC50 under setting [1] is 18.4 µM [rising, single point].
With `CCCCC(OC(=O)CN1C(=O)COc2ccccc21)C(=O)NC1CCCCC1` (configuration not stated), under setting [1], the concentration at half-maximal activity (AC50) was 1 µM [rising, full curve, poor fit].
Consider `O=C(NCC1CCCCC1)c1ccc(F)cc1Cl`, for which the AC50 under setting [1] is 15.8 µM [rising, partial curve, poor fit].
Turning to `Cc1cc(Nc2cccc([N+](=O)[O-])c2)n2c(nc3ccccc32)c1C#N`, the AC50 under setting [1] is 0.731 µM [rising, partial curve, poor fit].
`O=C(NCCCn1ccnc1)Nc1ccc(Cl)cc1`: the AC50 under setting [1] was 1.12 µM [rising, partial curve, poor fit].
On to `Nc1ccc2nn(-c3ccccc3)nc2c1`, for which the AC50 under setting [1] is 2.51 µM [rising, partial curve].
For `C/C(=N\NC(=O)c1cccc(Br)c1)c1cccnc1`, the AC50 under setting [1] was 10 µM [falling, partial curve, poor fit].
Take `COc1ccc(C(C)(C)C)cc1NC(=O)c1ccc2c(c1)SC1=NS(=O)(=O)CCN12`: the AC50 under setting [1] was 35.5 µM [falling, single point].
The same measure, in the same setting: then `Cc1cc(Nc2cccc(Cl)c2C)n2ncnc2n1`, with 29.1 µM [rising, single point].
On to `Cc1cccc(N2CCN(C(=O)c3cc(S(=O)(=O)N4CCOCC4)cn3C)CC2)c1C`, for which the AC50 under setting [1] is 11.2 µM [falling, partial curve, poor fit].
For `COc1cc(/C=N/NC(=O)c2cc(-c3ccccc3)nc3ccccc23)ccc1O`, the AC50 under setting [1] is 35.5 µM [rising, single point].
As to `COC(=O)CNC(=O)C1CCN(S(=O)(=O)c2cnc[nH]2)CC1`, the AC50 under setting [1] is 35.5 µM [rising, partial curve, poor fit].
For `COc1ccc(NC(=O)CN2C(=O)NC3(CCCC3)C2=O)cc1Cl`, the AC50 under setting [1] was 35.5 µM [rising, partial curve, poor fit].
For the compound `CCCC(=O)Nc1c(C)n[nH]c1C`, the AC50 under setting [1] was 1.26 µM [falling, partial curve, poor fit].
`O=C(Nc1c(F)cccc1F)c1cnc(N2CCN(c3ccccn3)CC2)c2ccccc12`: under setting [1], the AC50 is 16.4 µM [falling, single point].
For the compound `CCOC(=O)c1ccc(N=Cc2c(O)c3ccccc3oc2=O)cc1`, the half-maximal activity concentration (AC50) under setting [1] is 2.51 µM [falling, full curve].
In the case of `COc1ccc(-c2cc(-c3ccccc3)no2)cc1`, the AC50 under setting [1] was 5.17 µM [falling, full curve].
Still for that read-out and setting: then `O=C(CNC(=S)NC(=O)c1cccc([N+](=O)[O-])c1)c1ccccc1`, with 18.4 µM [rising, single point]; and `Nc1nc2c(-c3ccc(Br)cc3)nnn2c2ccccc12`, with 17.8 µM [rising, single point]; and `O=c1[nH]nc(SCc2ccccc2Cl)n1-c1ccc2c(c1)OCCO2`, with 15.8 µM [rising, partial curve, poor fit].
For the compound `O=C(O)CCn1nnc(-c2cccs2)n1`, the concentration at half-maximal activity (AC50) under setting [1] was 31.6 µM [rising, partial curve, poor fit].
As to `Cc1ccc(N/C(N)=N/c2nc3c(c(=O)[nH]2)CCCC3)c(C)c1`, the AC50 under setting [1] was 15.8 µM [falling, single point].
Regarding `S=c1c2c(nc3nc[nH]n13)CCC2`, the AC50 under setting [1] was 10 µM [rising, partial curve, poor fit] and the AC50 under setting [2] was 3.16 µM [falling, partial curve, poor fit].
As to `Oc1ccc(NCc2cccc(OCc3ccccc3)c2)cc1`, the AC50 under setting [2] is 25.1 µM [falling, partial curve, poor fit].
For the compound `CCOC(=O)c1nnn2c1nc(SCC(C)=O)c1ccccc12`, the AC50 under setting [1] was 3.98 µM [falling, full curve].
Turning to `Cn1cc([N+](=O)[O-])c(C(=O)Nc2ccc3nc(-c4ccccc4)[nH]c3c2)n1`, under setting [1], the AC50 is 9.2 µM [falling, partial curve].
In the case of `COc1ccc(C(=O)NCCC2=CCCCC2)cc1OC`, the AC50 under setting [1] is 29.1 µM [falling, single point].
Regarding `CSc1ccc(C2=CC(=O)C[C@H](c3ccc(Cl)cc3)C2)cc1`, the half-maximal activity concentration (AC50) under setting [1] was 1.84 µM [rising, full curve].
Still for that read-out and setting: for `C/C=C/Cn1c(Br)nc2c1c(=O)n(C)c(=O)n2C` the value was 1.84 µM [falling, partial curve, poor fit]; for `O=C(NCc1ccco1)c1ccc(-c2cccc(Cl)c2)o1`, 0.562 µM [rising, full curve, poor fit].
For the compound `CC(C)CCN1CC(=O)N2[C@@H](Cc3c([nH]c4ccccc34)C2(C)C)C1=O`, under setting [1], the AC50 is 10 µM [rising, partial curve, poor fit].
For the compound `Clc1ccccc1-c1cc(COc2ccc3ccccc3c2)no1`, under setting [1], the AC50 was 20.6 µM [rising, partial curve, poor fit].
For `COc1ccc(NC(=O)CSc2nnc(C3CCCCC3)n2N)c(OC)c1`, under setting [1], the AC50 is 7.94 µM [falling, partial curve, poor fit].
Regarding `CCN(CC)S(=O)(=O)c1ccc(N2CCCCC2)c(NC(=O)/C=C/c2ccc(OC)c(OC)c2)c1`, the half-maximal activity concentration (AC50) under setting [1] was 3.66 µM [rising, full curve, poor fit].
`CCOC(=O)c1c(C)[nH]c(C(=O)N/N=C\c2ccccc2Cl)c1C`: the AC50 was 20.6 µM [rising, single point] under setting [1] and 18.4 µM [falling, single point] under setting [2].
For the compound `Cc1ccc2c(C(=O)CSc3ccccc3)c(C)[nH]c2c1`, the concentration at half-maximal activity (AC50) under setting [1] is 0.461 µM [rising, full curve, poor fit].
Consider `Cc1nc(-c2ccccc2)sc1C(=O)CSc1ccc(Cl)cc1`, for which the AC50 runs as follows: under setting [1], 0.00366 µM [rising, full curve, poor fit]; under setting [2], 3.26 µM [rising, partial curve, poor fit].
Take `CCn1ccnc1CNC(=O)c1ccc2oc(CCCc3ccccc3)nc2c1`: the concentration at half-maximal activity (AC50) under setting [1] was 3.16 µM [rising, partial curve].
For the compound `COc1cccc(-n2c(=O)c3sccc3n(CC(=O)NCC3CCCO3)c2=O)c1` (configuration not stated), the half-maximal activity concentration (AC50) under setting [1] is 5.62 µM [rising, single point].
With `COc1ccc(Nc2nc(NCc3ccco3)nc(N/N=C/c3ccc(O)cc3)n2)cc1`, the concentration at half-maximal activity (AC50) under setting [1] is 8.2 µM [falling, partial curve].
Regarding `CCOC(=O)Cc1csc(NC(=O)c2ccoc2C)n1`, the AC50 under setting [1] was 16.4 µM [falling, partial curve, poor fit].
As for `N=C1/C(=C/c2ccc(OCc3ccccc3)cc2)C(=O)N=C2SC(CC(=O)N3CCOCC3)=NN12`, the AC50 under setting [1] was 10 µM [rising, partial curve, poor fit].
